Results are given in words; binding and its absence hold for the method and conditions named. In cells and extracts the contact can be indirect. Some results given as binding are weak or reduced against the parent protein; the word gives no strength.

The chains behind the UniProt entries cited, without tags or fusion partners.
UniProt O60566: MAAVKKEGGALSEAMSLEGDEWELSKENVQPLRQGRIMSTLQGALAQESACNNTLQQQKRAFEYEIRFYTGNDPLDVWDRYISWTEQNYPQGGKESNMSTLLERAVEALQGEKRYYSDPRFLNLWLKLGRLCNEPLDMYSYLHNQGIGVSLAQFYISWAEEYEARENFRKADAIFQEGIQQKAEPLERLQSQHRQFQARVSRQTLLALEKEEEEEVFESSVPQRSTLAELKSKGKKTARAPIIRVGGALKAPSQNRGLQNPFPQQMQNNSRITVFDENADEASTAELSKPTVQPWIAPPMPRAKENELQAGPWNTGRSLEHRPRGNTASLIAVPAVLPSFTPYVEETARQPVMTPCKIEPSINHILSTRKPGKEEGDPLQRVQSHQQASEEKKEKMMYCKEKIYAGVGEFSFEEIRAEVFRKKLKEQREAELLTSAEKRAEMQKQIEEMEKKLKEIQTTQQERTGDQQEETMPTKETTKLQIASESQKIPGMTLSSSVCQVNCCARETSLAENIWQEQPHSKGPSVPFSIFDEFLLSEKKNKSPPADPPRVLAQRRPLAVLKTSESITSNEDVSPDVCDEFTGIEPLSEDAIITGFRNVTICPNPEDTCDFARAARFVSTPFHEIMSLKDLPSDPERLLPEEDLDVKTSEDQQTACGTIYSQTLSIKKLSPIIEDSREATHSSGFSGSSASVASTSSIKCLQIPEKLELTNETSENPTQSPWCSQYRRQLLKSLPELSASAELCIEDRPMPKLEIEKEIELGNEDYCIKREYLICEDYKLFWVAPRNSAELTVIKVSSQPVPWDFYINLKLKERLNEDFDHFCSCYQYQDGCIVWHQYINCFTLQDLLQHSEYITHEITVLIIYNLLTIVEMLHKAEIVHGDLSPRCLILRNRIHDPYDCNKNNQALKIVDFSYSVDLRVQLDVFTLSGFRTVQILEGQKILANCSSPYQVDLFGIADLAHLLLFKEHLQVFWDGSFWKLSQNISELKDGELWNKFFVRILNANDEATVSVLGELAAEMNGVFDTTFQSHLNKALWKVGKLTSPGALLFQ
UniProt O43684: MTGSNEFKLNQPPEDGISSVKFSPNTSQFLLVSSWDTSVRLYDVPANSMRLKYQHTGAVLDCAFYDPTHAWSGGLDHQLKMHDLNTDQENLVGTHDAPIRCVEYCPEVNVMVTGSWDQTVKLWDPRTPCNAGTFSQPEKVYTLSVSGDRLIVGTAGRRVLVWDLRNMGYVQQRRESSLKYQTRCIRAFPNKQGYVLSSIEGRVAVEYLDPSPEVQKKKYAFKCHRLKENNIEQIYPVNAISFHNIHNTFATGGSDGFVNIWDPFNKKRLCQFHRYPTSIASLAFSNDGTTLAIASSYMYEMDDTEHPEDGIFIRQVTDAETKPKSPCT

Results on 1 substance are retold here after PMC6155330.

The target in this assay is BubR1 (human (endogenous in HeLa)) (UniProt O60566). The assay is described as follows: co-IP; HeLa cells in 1 uM Taxol for 12 hours, then MG132 with DMSO control or SB415286 (SB), harvested after 2.5 hours; RIPA lysate, 200-300 ug, immunoprecipitated with BubR1 antibody (IgG as control) and protein A-agarose; washed four times with lysis buffer containing 250 mM NaCl; western blot. Background: A western blot detects proteins with antibodies after separation by electrophoresis.

Regarding Bub3 (from UniProt O43684 1-328), the binding entry is “binds”.
